Data on 1 substance can be found in publication doi:10.1101/2024.08.06.606614 (bioRxiv, 2024).

Results are given in words; binding and its absence hold for the method and conditions named. Binding calls can cover weak binding; strength is not graded here.

For this assay, the target named is T1, Ankyrin repeat and MYND domain-containing protein 1 (ANKMY1) (mouse (endogenous in mouse sperm)) (UniProt Q8C0W1).
T1 sequence: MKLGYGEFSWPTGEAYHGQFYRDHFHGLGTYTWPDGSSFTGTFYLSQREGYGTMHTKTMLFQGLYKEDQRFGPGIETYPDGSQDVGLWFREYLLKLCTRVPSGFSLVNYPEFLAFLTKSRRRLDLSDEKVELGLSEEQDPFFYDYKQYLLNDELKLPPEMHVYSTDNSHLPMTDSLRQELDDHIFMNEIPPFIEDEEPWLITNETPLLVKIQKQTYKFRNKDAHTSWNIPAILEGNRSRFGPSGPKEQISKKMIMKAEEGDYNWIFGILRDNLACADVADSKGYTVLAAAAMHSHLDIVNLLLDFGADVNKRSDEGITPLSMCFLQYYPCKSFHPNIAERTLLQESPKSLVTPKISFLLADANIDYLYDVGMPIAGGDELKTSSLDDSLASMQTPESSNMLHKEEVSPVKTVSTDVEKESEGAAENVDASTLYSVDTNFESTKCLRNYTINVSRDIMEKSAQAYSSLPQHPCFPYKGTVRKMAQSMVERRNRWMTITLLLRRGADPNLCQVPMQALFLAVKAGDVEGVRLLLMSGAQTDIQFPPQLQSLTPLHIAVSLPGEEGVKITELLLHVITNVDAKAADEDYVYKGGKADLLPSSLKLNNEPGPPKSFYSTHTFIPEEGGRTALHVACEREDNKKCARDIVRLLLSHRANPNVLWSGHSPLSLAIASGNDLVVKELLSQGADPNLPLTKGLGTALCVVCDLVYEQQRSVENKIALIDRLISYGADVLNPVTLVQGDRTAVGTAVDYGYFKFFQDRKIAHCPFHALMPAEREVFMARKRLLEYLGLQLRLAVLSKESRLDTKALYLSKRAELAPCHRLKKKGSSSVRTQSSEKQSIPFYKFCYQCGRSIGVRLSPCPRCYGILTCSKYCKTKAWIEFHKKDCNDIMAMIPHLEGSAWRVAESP
Nature of the assay: cryo-EM structure.

With “CCDC180 (mouse (endogenous in mouse sperm))”, the binding result is on record as “binds”.
